Reference: US20220348584A1, “PERK INHIBITING INDOLINYL COMPOUNDS” (HiberCell, Inc., priority 2019, published 2022)
Some entries share one result that the patent states for a list of compounds.

Experiments:
[1] = system: HEK293-EGFP-eIF2a cells; test: PERK Cellular Assay (TR-FRET, GFP-eIF2α, tunicamycin-induced ER stress); assay type: cell-based, human; conditions: statement in words
Description: Stable cell lines were created in HEK293 cells using lentiviral particles harboring an expression vector for GFP-eIF2α. Cells were selected using puromycin and enriched using fluorescence activated cell sorting against GFP. HEK293-EGFP-eIF2a cells were plated at 5000 cells/well in 384-well assay plates and incubated overnight at 37° C., 5% CO2. Inhibitor compounds were added to the wells by Echo acoustic dispensing and incubated for 30 minutes at 37° C., 5% CO2 prior to induction of ER stress by addition of tunicamycin to […] for 2 hours. Cells were lysed and TR-FRET was measured in an EnVision plate reader (PerkinElmer). FRET ratio data was normalized to signal from lysates treated with DMSO vehicle control and plotted as percent inhibition against 10-point; 3-fold dilution series of inhibitors. IC50 values were calculated using 4-parameter logistical fitting in XLFit.

[2] = biological target: T1, EIF2AK3 (PERK) catalytic domain (amino acids 536-1116) (Homo sapiens, UniProt Q9NZJ5); test: PERK In Vitro Activity Assay (Isolated), TR-FRET kinase assay; assay type: biochemical; conditions: statement in words
T1 construct: EIF2AK3 (PERK) catalytic domain (amino acids 536-1116); purchased Invitrogen, Carlsbad, Calif
T1 sequence (Q9NZJ5 536-1116): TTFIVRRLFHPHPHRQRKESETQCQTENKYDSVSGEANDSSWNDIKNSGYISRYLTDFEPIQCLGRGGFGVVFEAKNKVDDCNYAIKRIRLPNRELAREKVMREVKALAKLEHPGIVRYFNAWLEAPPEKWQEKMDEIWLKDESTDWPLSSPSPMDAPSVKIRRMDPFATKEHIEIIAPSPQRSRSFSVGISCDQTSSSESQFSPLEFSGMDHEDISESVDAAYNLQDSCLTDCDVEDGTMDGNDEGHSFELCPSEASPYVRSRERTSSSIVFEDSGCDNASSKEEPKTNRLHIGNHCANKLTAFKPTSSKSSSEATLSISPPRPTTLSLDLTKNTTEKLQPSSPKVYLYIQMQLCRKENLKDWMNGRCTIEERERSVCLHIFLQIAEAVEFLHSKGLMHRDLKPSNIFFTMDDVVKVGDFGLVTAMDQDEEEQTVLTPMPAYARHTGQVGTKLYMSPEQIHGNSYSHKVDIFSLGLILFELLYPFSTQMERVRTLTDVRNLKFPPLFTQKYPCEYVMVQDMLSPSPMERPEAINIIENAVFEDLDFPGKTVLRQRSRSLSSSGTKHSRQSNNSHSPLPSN
Description: Perform TR-FRET kinase assays in the absence or presence of inhibitors in a reaction buffer consisting of 50 mM HEPES, pH 7.5, 10 mM MgCb, 1.0 mM EGTA, and 0.01% Brij-35, and 100-200 nM GFP-eIF2a substrate. […] Add test compound, initiate the reaction by addition of enzyme, and incubate at room temperature for 45 minutes. Stop the reaction by addition of EDTA to a final concentration of 10 mM, add Terbium-labelled phospho-eIF2a antibody at a final concentration of 2 nM, and incubate for 90 minutes. Monitor the resulting fluorescence in an EnVison® Multilabel reader (PerkinElmer, Waltham, Mass.).

Structure (SMILES)	inhibition of EIF2a in vitro (cellular assay) [1]	inhibition of isolated PERK enzyme activity in vitro [2]
Cc1nc(N)c2c(-c3ccc4c(c3F)CCN4C(=O)C(O)c3ccccc3)cn(C)c2n1 (racemic) [Example 5, 1-(5-(4-amino-2,7-dimethyl-7H-pyrrolo[2,3-d]pyrimidin-5-yl)-4-fluoroindolin-1-yl)-2-hydroxy-2-phenylethanone]	inhibit EIF2a in vitro	inhibit isolated PERK enzyme activity in vitro
Cn1cc(-c2ccc3c(c2F)CCN3C(=O)C(O)c2ccccc2)c2c(N)ncnc21 (racemic) [Example 8, 1-(5-(4-amino-7-methyl-7H-pyrrolo[2,3-d]pyrimidin-5-yl)-4-fluoroindolin-1-yl)-2-hydroxy-2-phenylethanone]	inhibit EIF2a in vitro	inhibit isolated PERK enzyme activity in vitro
Cc1nc(N)c2c(-c3ccc4c(c3F)CCN4C(=O)C(O)c3cccc(F)c3)cn(C)c2n1 (racemic) [Example 9, 1-(5-(4-amino-2,7-dimethyl-7H-pyrrolo[2,3-d]pyrimidin-5-yl)-4-fluoroindolin-1-yl)-2-(3-fluorophenyl)-2-hydroxyethanone]	inhibit EIF2a in vitro	inhibit isolated PERK enzyme activity in vitro
Cc1nc(N)c2c(-c3ccc4c(c3F)CCN4C(=O)C(O)c3cc(F)cc(F)c3)cn(C)c2n1 (racemic) [Example 10, 1-(5-(4-amino-2,7-dimethyl-7H-pyrrolo[2,3-d]pyrimidin-5-yl)-4-fluoroindolin-1-yl)-2-(3,5-difluorophenyl)-2-hydroxyethanone]	inhibit EIF2a in vitro	inhibit isolated PERK enzyme activity in vitro
Cn1cc(-c2ccc3c(c2F)CCN3C(=O)C(O)c2ccccc2)c2c(N)ncnc21 (single isomer, unassigned) [Example 1, 1-(5-(4-amino-7-methyl-7H-pyrrolo[2,3-d]pyrimidin-5-yl)-4-fluoroindolin-1-yl)-2-hydroxy-2-phenylethanone]	inhibit EIF2a in vitro	inhibit isolated PERK enzyme activity in vitro
Cn1cc(-c2ccc3c(c2F)CCN3C(=O)C(O)c2ccccc2)c2c(N)ncnc21 (single isomer, unassigned) [Example 2, 1-(5-(4-amino-7-methyl-7H-pyrrolo[2,3-d]pyrimidin-5-yl)-4-fluoroindolin-1-yl)-2-hydroxy-2-phenylethanone]	inhibit EIF2a in vitro	inhibit isolated PERK enzyme activity in vitro
Cn1cc(-c2ccc3c(c2F)CCN3C(=O)C(N)c2ccccc2)c2c(N)ncnc21 (single isomer, unassigned) [Example 3, 2-amino-1-(5-(4-amino-7-methyl-7H-pyrrolo[2,3-d]pyrimidin-5-yl)-4-fluoroindolin-1-yl)-2-phenylethanone]	inhibit EIF2a in vitro	inhibit isolated PERK enzyme activity in vitro
Cn1cc(-c2ccc3c(c2F)CCN3C(=O)C(N)c2ccccc2)c2c(N)ncnc21 (single isomer, unassigned) [Example 4, 2-amino-1-(5-(4-amino-7-methyl-7H-pyrrolo[2,3-d]pyrimidin-5-yl)-4-fluoroindolin-1-yl)-2-phenylethanone]	inhibit EIF2a in vitro	inhibit isolated PERK enzyme activity in vitro
CC(C)NC(=O)c1cc(-c2ccc3c(c2F)CCN3C(=O)C(O)c2cc(F)cc(F)c2)cnc1N (single isomer, unassigned) [Example 6, 2-amino-5-(1-(2-(3,5-difluorophenyl)-2-hydroxyacetyl)-4-fluoroindolin-5-yl)-N-isopropylnicotinamide]	inhibit EIF2a in vitro	inhibit isolated PERK enzyme activity in vitro
